{"source": "patent US20240058349A1", "about": "“PI3K INHIBITORS FOR PROTECTION AGAINST GLUCOCORTICOID-INDUCED ATROPHY” (Northwestern University, priority 2020, published 2024)", "format_in_all_cases": "cell-based, human", "key": {"Granta cells": {"test_system": "Granta cells", "assay": "MTT cell viability / cytotoxicity assay in Granta cells", "description": "Cell cultures. Acute lymphoblastic leukemia cell line CEM and mantle cell lymphoma cell line Granta were obtained from ATCC and cultured in RPMI-1640 (Thermo Fischer) with 10% FBS (HyClone), sodium piruvate (10 mM), HEPES (10 mM) and antibiotics (referred thereafter as complete medium; Thermo Fischer) (Ref 14; incorporated by reference in its entirety). Peripheral blood samples were collected from healthy volunteers. The ethical Committee of the Blokhin Cancer Research Center approved this study, written informed consents were provided. Mononuclear cell fraction was isolated by 1.077 g/ml Ficoll-Isopaque density-gradient centrifugation and cultured in the complete medium. Cells were pretreated with Rapa (0.1-5 uM), LY294002 (10-100 uM), WM (1-10 uM) and AZD8055 (0.1-2 uM) or vehicle for 6 h, then were treated for Dex (1-10 uM) or vehicle for 24-144 h as indicated.\nAnalysis of cell viability and apoptosis induction. Cell viability was assessed using the MTT assay as follows: cells were incubated at 37° C. for 3 h with 20 ul of MTT solution (5 mg/ml). Supernatant was discarded and 150 μL of 100% DMSO was added to each well. Optical density was measured at 495 nm using a microplate reader MultiScan MCC 340 (Labsystems). The IC50 values was calculated using Quest Graph IC50 Calculator free software. Isobolograms were constructed (Ref 15; incorporated by reference in its entirety). IC50 values of PI3K inhibitors or Dex as single agents were plotted as 1 on the x and y axes, respectively. Various concentrations of PI3K inhibitors and for Dex were combined. The IC50 values for each compound in the combination were calculated and plotted as a percentage of each single drug. The disposition of data points below, above or on the line of additivity indicates synergy, antagonism or additivity, correspondingly.\nPI3K/Akt/mTOR inhibitors were developed as anti-cancer drugs. To assess whether and how PI3K/Akt/mTOR inhibitors interacted with Dex anti-lymphoma effects, experiments were conducted to evaluate the efficacy of the combined treatment in vitro using such readouts as cell viability (MTT test) and apoptosis (PARP cleavage and sub-G1-phase cell population determined by FACS)."}, "GR [1]": {"test_system": "GR", "assay": "GRE.Luciferase reporter assay (GR transactivation) in CEM and Granta cells", "description": "Luciferase assay. GRE.Luc, NF-κB.Luc and control mCMV.Luc reporter cells were generated (Ref. 13; incorporated by reference in its entirety) using viral stocks obtained from Northwestern University SDRC DNA/RNA delivery Core. Luciferase activity was measured (Ref. 10; incorporated by reference in its entirety).\nREDD1 is a GR target gene (Refs. 10,21; incorporated by reference in their entireties). To assess whether REDD1 inhibitors could modify GR function, LY294002, WM and AZD8055 effect on GR TA and TR was evaluated using CEM and Granta cells transduced with GRE.Luc and NF-kB.Luc reporters. […] Luciferase activity in both cell lines (FIG. 2A, C). […] Attenuation of GR TA was further confirmed by Q-PCR analysis of known GR-target genes including GR chaperone FKBP51 (Refs. 12,14; incorporated by reference in their entireties), mediator of Gcs anti-inflammatory effects GILZ (22,23), transcriptional activator KLF9 (24) and inhibitor of cytokine production MKP-1 (25) (FIG. 2B, D and FIG. 7A, B)."}, "GR [2]": {"test_system": "GR", "assay": "Western blot of GR nuclear translocation", "conditions": "CEM and Granta cells; LY294002 50 uM, AZD8055 1 uM, Dex 1 uM 24 h", "description": "Western blot analysis. Western blot analysis was performed (Ref 10; incorporated by reference in its entirety). The following antibodies were used: GR (H-300) (Santa Cruz Biotechnology, Dallas, TX), phospho-GR (Ser211), phospho-4E-BP1 (Thr37/46), phospho-Akt (Ser473), Akt, 4E-BP1, cleaved and full-length PARP, GAPDH, HDAC1 (Cell Signaling, San Jose, CA), REDD1 (Proteintech Group, Rosemont, IL).\nTo identify the molecular mechanisms underlying GR functional changes induced by PI3K/Akt/mTOR inhibitors, the effect of these compounds on major steps in GR activation was assessed: GR phosphorylation at Ser211 and nuclear translocation that are critical for GR TA (Refs. 27,28; incorporated by reference in their entireties)."}, "CEM cells": {"test_system": "CEM cells", "assay": "Apoptosis induction (PI staining sub-G1, PARP cleavage) in CEM cells", "description": "Apoptosis induction was evaluated using Western blot analysis of PARP cleavage and propidium iodine (PI) staining (Ref. 14; incorporated by reference in its entirety).\nCooperative anti-lymphoma effects of Dex and PI3K/Akt/mTOR inhibitors in vitro. PI3K/Akt/mTOR inhibitors were developed as anti-cancer drugs. To assess whether and how PI3K/Akt/mTOR inhibitors interacted with Dex anti-lymphoma effects, experiments were conducted to evaluate the efficacy of the combined treatment in vitro using such readouts as cell viability (MTT test) and apoptosis (PARP cleavage and sub-G1-phase cell population determined by FACS). The cytotoxic effect of Dex and PI3K inhibitors in wide concentration range (LY294002 1-500 uM, WM 0.1-25 uM, AZD8055 0.05-5 uM) was assessed (FIG. 8) and determined IC50 values after 24 h treatment (Table 8).\nThe effect of Dex combined with LY294002, AZD8055, WM or reference inhibitor Rapa was examined on apoptosis."}}, "note": "For at least one compound, name, drawing or mass did not settle the structure. Some entries repeat one wording, which the source may state once for all of them. Some of these results come from one statement about several compounds together. Some compounds share one range, which may span the group rather than tell each member.", "data": [{"smiles": "O=c1cc(N2CCOCC2)oc2c(-c3ccccc3)cccc12", "note": "[LY294002]", "values": [{"measurement": "type of interaction with Dex (isobologram analysis), Granta cells", "setting": "Granta cells; combination with Dex, IC50 after 24 h treatment", "result": "synergy"}, {"measurement": "decrease of Granta survival", "setting": "Granta cells; used alone for 6 days, LY294002 50 uM, AZD8055 1 uM, WM 10 uM, Dex 1 uM", "result": "70-90%"}, {"measurement": "Dex-induced GRE.Luciferase activity", "setting": "GR [1]; 6 h pre-treatment, Dex 1 uM 24 h", "result": "inhibited Dex-induced GRE. Luciferase activity"}, {"measurement": "basal GR activity (GRE.Luciferase)", "setting": "GR [1]; applied individually", "result": "negatively affected basal GR activity"}, {"measurement": "GR nuclear import", "setting": "GR [2]", "result": "significantly prevented GR nuclear import"}, {"measurement": "PARP cleavage (Western blot) in combination with Dex, CEM cells", "setting": "CEM cells; combined with Dex", "result": "especially pronounced cooperative pro-apoptotic effects"}, {"measurement": "apoptosis induction in combination with Dex, CEM cells", "setting": "CEM cells; combined with Dex", "result": "cooperated with Dex in apoptosis induction"}, {"measurement": "apoptosis (sub-G1-phase cell population), used alone, CEM cells", "setting": "CEM cells; used alone", "result": "stimulated apoptosis"}]}]}
